According to the supplement of paper PMC3334620:
Whole data set: some 33,000 sequences, median “E-score (-0.5 to 0.5)” near -0.0059, cut for the highest 2% near 0.26. The list shows a part of the results.

The sequences below were run against T1, Cin5 (UniProt P40917) (assay: PBM E-score (8-mer binding enrichment) (E-score (-0.5 to 0.5)); higher = stronger / more preferred TF binding). Conditions: protein concentration: 100 nM; construct: GST-full length.
T1 sequence: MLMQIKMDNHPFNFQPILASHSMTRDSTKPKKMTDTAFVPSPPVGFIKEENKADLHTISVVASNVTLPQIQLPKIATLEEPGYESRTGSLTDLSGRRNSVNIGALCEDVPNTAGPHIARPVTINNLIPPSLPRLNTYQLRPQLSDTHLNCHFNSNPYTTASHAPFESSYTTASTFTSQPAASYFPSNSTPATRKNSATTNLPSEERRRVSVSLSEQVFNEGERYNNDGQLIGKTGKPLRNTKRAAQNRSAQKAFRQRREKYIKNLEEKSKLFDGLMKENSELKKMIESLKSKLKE
How it was run: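 Full-length yeast transcription factors or their DNA-binding domains, GST-tagged and expressed with PURExpress, were applied at about 100-200 nM to universal all-10-mer Agilent arrays. These arrays had been made double-stranded by primer extension on fresh or once-stripped slides. Detection used fluorescent anti-GST, normalisation used masliner, and E-scores for ungapped eight-base words pooled with reverse complements came from the Universal PBM Analysis Suite.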

Row | Sequence | PBM E-score
1 | ACCGGTGG | -0.337
2 | GGACTCAC | -0.112
3 | CCACAGAC | -0.0305
4 | AATGACCG | -0.152
5 | CCGTCGAC | -0.112
6 | CCCCAGGA | -0.307
7 | GCTGATAC | -0.0491
8 | ACGTTGAC | -0.0754
9 | CAAGGCGG | -0.138
10 | AGAAGCTA | -0.223
11 | ATACCCAA | 0.163
12 | GTCCCCAA | -0.0799
13 | GCAGGTAA | 0.0243
14 | AATGGCAC | 0.00736
15 | CTCGCGCA | -0.0261
16 | ACACGCCT | -0.127
17 | AATGCGCG | 0.188
18 | GTGGTAGA | -0.137
19 | ATCTGCTA | 0.0958
20 | CAGCAACC | -0.0685
21 | TACTATAA | 0.333
22 | ACTCGGAG | -0.0716
23 | CCGCTCCG | -0.144
24 | CAGGCGCG | -0.0492

Row | Sequence | PBM E-score
25 | AACGATGA | 0.113
26 | ACCCATAT | 0.211
27 | GTTTACGA | 0.0113
28 | CGAGAGCG | -0.0587
29 | AACGCTTG | -0.119
30 | TATCAAGA | 0.164
31 | ACCTGATC | -0.0288
32 | ACAGAACC | -0.0371
33 | TGTATAAA | 0.114
34 | AAACCCTC | -0.0965
35 | GCACGGTA | -0.221
36 | CTGACTCC | -0.13
37 | ACGAGAAC | 0.0329
38 | CTCTTAAC | -0.047
39 | ACATTTAA | 0.17
40 | ATGTACGC | -0.0147
41 | ACGATATG | 0.245
42 | GCCCGCAC | 0.0134
43 | ATTCCCAC | -0.00223
44 | AATGAGGC | -0.0978
45 | GCAATCAC | 0.054
46 | TAGGCAAA | 0.0344
47 | AAAGGCGG | -0.104
48 | GCACTTCC | -0.0696

Row | Sequence | PBM E-score
49 | CCTCCGAA | -0.207
50 | GAACAGGC | -0.132
51 | CTGATTGA | -0.044
52 | AATAGCGA | 0.187
53 | AAACCACT | 0.0657
54 | GCCCGGAC | -0.273
55 | ACTCGCTA | -0.0453
56 | AATACCTG | 0.0667
57 | AATAGGTC | 0.0429
58 | ACCGATTA | 0.256
59 | CGTCACAG | 0.0712
60 | ATAAGCGA | 0.267
61 | ACGCACAC | -0.0238
62 | AGTGTGAT | 0.176
63 | CGGGGAGC | -0.205
64 | ATTGCACA | 0.151
65 | CGCACGAC | -0.171
66 | GAGAAGTA | 0.0723
67 | AACCGTTC | 0.115
68 | AGGTGGGC | -0.218
69 | ACCCACCT | -0.105
70 | AGTCGAAT | -0.0202
71 | CCTGTCAC | -0.181
72 | ATTTCGTC | 0.175

Row | Sequence | PBM E-score
73 | TATAACAA | 0.295
74 | CCCGAGGG | -0.255
75 | GTGAAGTA | 0.0572
76 | AATGAGAA | 0.0175
77 | CCTGTACC | -0.146
78 | CCGACAAC | -0.167
79 | AACTTAGT | 0.0599
80 | ATCATGTG | 0.111
81 | CGGGATAC | -0.0343
82 | ATAATGCG | 0.153
83 | GGCTCCCC | -0.355
84 | ACTGATCG | -0.0818
85 | GCCTGGGA | -0.238
86 | AAACTACA | 0.198
87 | ACGGCAGA | 0.126
88 | CATCGAAC | 0.15
89 | CTCCCAGA | -0.289
90 | ACAGAAGC | 0.0995
91 | GCCATGGC | -0.236
92 | ATACGAAC | 0.175
93 | GAGGGGGA | -0.324
94 | AGCACCCA | -0.00596

As entered above:
PBM E-score with CCGACAAC reads -0.167
PBM E-score with ACCGGTGG reads -0.337
PBM E-score with GTGGTAGA reads -0.137
